Test results reported in the supplement of paper PMC10849652.
This is one part of the list.

Protein sequences, listed by entry. Tags and fused reporters are not part of them. Lines headed by an entry give the natural chain unless they say otherwise; changes in a name come on top.
UniProt P62714, whole entry, looked up: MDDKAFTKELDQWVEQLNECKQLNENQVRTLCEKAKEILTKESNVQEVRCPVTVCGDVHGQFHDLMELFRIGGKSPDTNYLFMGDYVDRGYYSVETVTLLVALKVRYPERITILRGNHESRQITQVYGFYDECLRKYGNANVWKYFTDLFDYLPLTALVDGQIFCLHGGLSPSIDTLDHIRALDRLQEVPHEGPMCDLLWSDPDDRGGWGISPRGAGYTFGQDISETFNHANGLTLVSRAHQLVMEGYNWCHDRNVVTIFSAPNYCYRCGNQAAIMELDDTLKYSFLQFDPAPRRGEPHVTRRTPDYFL
UniProt O60927: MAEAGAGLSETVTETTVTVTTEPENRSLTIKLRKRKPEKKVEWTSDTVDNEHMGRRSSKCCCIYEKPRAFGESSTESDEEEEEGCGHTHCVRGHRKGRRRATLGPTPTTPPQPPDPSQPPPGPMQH
UniProt P07225: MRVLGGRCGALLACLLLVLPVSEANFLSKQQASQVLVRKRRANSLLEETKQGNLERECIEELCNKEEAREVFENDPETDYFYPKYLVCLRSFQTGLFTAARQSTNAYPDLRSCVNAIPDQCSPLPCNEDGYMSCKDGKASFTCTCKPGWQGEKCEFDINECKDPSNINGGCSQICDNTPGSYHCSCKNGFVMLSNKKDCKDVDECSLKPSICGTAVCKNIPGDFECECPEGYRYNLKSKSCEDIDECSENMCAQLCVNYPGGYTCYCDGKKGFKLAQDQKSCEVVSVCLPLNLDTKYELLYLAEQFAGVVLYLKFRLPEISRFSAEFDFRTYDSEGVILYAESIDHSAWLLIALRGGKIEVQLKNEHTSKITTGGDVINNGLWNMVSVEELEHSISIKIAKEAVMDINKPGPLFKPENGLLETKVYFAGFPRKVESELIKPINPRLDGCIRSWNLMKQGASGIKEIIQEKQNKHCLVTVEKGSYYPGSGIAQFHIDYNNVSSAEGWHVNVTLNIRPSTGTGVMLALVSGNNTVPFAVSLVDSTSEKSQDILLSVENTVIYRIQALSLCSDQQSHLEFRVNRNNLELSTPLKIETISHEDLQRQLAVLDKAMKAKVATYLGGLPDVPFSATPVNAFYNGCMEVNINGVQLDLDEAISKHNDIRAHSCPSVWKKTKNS
UniProt P48147: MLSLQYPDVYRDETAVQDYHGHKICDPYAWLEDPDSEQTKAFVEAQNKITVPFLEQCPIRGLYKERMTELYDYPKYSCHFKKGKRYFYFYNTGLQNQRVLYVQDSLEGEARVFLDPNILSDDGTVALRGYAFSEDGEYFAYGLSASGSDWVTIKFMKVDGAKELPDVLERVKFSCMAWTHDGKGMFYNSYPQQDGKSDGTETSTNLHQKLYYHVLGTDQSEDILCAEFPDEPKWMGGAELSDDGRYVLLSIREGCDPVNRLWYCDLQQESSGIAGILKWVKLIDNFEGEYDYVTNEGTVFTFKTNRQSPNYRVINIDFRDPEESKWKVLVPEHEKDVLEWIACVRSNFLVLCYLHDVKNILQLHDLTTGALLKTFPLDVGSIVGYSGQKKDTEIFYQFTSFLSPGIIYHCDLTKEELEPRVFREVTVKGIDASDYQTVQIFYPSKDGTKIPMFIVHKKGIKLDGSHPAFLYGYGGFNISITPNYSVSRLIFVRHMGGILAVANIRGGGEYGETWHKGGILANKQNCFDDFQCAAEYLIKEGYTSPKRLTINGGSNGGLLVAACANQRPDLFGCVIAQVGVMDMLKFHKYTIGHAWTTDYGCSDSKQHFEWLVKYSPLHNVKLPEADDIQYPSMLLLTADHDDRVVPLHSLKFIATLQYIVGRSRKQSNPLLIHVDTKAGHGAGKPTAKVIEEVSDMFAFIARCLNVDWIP
UniProt O43395: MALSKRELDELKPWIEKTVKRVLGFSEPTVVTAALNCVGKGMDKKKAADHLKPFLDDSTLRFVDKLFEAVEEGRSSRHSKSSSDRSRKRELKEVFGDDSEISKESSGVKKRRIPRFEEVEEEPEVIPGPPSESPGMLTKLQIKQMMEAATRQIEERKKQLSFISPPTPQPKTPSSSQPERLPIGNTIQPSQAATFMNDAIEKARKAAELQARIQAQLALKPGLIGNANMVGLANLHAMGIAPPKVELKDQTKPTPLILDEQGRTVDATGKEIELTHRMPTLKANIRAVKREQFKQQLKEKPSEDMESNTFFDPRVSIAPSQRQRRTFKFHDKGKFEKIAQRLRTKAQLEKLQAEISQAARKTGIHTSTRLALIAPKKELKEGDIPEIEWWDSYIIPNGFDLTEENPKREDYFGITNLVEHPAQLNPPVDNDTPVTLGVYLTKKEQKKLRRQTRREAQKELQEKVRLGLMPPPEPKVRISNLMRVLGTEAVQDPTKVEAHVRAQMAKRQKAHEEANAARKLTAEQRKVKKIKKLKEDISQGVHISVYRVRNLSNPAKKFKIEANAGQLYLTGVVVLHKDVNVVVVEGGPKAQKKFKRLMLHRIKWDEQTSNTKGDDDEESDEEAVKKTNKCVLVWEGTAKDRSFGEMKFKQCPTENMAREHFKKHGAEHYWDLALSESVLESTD
UniProt Q8TAP8: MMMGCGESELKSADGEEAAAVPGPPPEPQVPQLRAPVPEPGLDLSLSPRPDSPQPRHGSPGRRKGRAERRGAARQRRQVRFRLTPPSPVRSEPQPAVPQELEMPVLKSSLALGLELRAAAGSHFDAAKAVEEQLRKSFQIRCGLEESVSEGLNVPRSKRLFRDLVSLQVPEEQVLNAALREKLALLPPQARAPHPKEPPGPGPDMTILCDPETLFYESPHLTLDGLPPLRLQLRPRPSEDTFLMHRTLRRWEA
UniProt Q9UGJ0: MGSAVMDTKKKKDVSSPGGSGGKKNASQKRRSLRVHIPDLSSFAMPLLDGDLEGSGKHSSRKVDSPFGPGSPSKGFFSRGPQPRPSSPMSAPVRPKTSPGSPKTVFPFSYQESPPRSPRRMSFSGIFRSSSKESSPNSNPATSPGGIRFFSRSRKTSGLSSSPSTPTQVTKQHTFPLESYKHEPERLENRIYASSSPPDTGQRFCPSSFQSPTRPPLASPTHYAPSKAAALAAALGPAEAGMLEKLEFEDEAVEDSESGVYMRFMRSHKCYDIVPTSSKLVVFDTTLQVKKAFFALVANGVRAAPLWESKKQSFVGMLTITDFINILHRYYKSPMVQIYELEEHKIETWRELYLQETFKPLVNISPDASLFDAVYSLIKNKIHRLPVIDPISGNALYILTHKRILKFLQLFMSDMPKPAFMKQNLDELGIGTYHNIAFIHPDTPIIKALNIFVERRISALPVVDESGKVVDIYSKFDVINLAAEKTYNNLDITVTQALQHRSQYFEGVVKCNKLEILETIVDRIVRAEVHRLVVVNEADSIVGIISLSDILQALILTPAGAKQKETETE
UniProt Q9Y570: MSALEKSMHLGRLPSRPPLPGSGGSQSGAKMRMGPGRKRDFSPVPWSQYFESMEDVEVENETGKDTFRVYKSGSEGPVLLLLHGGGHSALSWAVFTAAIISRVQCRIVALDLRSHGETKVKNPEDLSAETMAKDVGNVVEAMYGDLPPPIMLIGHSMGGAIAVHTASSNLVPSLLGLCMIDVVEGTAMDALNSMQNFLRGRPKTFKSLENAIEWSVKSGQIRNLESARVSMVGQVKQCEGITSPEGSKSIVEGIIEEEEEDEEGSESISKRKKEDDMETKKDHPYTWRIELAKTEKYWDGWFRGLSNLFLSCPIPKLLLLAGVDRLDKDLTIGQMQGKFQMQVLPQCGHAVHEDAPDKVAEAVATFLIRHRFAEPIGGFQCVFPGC
UniProt O43741: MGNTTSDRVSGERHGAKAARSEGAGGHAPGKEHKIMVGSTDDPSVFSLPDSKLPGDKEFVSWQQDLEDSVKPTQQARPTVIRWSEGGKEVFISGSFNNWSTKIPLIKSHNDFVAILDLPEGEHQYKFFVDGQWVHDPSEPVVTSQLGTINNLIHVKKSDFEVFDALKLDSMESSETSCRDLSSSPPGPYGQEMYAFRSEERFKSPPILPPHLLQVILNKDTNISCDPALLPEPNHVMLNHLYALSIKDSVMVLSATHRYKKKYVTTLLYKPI
UniProt Q9UMS4: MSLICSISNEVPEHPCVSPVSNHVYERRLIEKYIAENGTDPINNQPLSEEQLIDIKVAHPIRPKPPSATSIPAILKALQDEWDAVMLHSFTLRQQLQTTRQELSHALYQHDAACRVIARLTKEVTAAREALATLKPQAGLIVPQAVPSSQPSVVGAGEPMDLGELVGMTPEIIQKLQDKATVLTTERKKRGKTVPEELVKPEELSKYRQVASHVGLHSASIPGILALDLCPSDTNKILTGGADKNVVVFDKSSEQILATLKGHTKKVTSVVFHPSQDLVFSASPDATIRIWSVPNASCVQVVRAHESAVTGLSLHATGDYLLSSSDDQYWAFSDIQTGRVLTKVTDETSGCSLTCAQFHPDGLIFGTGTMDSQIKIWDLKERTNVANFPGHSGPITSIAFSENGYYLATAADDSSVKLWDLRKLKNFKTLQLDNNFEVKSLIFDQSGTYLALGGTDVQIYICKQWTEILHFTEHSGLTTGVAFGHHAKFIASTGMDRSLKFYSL
UniProt P53041: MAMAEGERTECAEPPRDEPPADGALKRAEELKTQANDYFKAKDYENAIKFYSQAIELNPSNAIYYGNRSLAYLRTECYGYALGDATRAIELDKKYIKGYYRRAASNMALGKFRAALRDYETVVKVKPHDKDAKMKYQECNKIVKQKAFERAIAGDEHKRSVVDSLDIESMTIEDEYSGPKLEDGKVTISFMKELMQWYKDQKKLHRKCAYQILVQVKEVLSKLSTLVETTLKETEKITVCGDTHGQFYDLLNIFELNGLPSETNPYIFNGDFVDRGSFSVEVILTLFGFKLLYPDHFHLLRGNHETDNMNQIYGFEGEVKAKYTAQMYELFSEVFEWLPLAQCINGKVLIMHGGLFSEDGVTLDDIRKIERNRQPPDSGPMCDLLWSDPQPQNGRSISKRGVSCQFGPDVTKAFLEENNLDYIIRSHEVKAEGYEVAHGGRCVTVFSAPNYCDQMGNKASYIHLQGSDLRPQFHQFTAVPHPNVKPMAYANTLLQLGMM
UniProt P78395, whole entry, looked up: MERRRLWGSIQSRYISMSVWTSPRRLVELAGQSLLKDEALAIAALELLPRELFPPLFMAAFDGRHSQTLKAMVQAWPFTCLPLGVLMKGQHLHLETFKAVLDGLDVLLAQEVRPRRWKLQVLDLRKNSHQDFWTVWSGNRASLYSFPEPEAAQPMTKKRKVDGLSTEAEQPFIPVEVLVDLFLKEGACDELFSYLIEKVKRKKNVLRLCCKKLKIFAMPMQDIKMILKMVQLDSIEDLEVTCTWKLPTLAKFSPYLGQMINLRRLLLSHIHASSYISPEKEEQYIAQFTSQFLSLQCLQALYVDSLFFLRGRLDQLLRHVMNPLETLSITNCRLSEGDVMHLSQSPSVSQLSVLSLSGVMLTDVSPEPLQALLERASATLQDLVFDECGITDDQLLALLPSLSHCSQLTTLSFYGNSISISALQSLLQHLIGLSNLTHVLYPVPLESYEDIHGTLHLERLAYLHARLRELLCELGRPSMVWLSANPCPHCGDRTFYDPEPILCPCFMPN
UniProt P42785: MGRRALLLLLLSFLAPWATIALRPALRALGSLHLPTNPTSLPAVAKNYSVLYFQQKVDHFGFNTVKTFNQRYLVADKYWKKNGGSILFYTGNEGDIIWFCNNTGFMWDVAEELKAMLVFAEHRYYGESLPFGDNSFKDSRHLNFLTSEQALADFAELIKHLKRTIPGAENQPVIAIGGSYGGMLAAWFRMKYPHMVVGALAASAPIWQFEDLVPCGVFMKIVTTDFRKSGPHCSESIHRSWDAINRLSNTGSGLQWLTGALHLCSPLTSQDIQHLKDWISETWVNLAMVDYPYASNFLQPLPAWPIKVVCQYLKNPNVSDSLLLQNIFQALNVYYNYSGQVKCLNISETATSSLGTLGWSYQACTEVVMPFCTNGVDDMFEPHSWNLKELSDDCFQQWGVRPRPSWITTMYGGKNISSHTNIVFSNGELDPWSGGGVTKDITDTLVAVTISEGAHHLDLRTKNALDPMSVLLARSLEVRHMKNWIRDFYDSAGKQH
UniProt Q5VTL8: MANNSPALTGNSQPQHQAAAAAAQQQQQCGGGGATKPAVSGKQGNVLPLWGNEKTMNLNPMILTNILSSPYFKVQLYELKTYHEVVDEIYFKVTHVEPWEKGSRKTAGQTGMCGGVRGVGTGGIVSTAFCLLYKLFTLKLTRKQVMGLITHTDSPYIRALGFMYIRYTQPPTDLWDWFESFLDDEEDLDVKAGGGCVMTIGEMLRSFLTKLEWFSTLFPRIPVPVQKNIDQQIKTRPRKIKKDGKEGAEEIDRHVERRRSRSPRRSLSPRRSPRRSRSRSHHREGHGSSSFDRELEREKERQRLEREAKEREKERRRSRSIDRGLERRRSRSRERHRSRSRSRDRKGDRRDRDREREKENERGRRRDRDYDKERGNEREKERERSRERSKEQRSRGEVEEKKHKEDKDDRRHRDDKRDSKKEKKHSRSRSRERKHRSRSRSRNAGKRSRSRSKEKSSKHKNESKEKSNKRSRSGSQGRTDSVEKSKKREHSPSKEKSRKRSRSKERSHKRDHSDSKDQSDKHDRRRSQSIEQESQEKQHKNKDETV

What follows are targets tested with CC1=C(SC2=C1C(=N[C@H](C3=NN=C(N32)C)CC(=O)N)C4=CC=C(C=C4)Cl)C (assay: log2 fold change, soluble protein after heating vs DMSO (PISA); higher = thermal stabilisation; K562 cells, 10 uM, 30 min; active = over 0.2 and 3.5 SD of the protein, either way, in both replicates (recomputed)).
Outline: (§1)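 Aliquots of K562 cells (2×10^6 cells/mL) treated with 10 μM compound for 30 min were heated for 3 min over 48°C-58°C. After pooling and extraction in PBS with 0.5% NP-40 at 4°C, soluble protein from a 21,000xg, 90 min spin was quantified by TMTpro 16plex LC-MS/MS with channel sums equalised. Thermal stability is expressed against control samples, from duplicates, as a log2 fold change.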

Target	log2 fold change
PPP2R5D (UniProt Q14738)	inactive: 0.103
PPP2CB (UniProt P62714)	inactive: 0.006
PPP1R11 (UniProt O60927)	inactive: -0.066
PROS1 (UniProt P07225)	inactive: -0.039
PRKCD (UniProt Q05655)	inactive: 0.082
PRIM2 (UniProt P49643)	inactive: 0.063
PPP1R12A (UniProt O14974)	inactive: 0.057
PPP1CB (UniProt P62140)	inactive: 0.041
PREP (UniProt P48147)	inactive: -0.041
PRMT9 (UniProt Q6P2P2)	inactive: -0.044
PPM1F (UniProt P49593)	inactive: 0.058
PRPF3 (UniProt O43395)	inactive: -0.208
PRPF31 (UniProt Q8WWY3)	inactive: 0.028
PPT1 (UniProt P50897)	inactive: 0.021
PPM1H (UniProt Q9ULR3)	inactive: 0.068
PPP1R35 (UniProt Q8TAP8)	inactive: 0.006

The targets below were run with CC1=C2C(=CC=C1)N=C(N(C2=O)C3=CC=CC=C3C)CN4C=NC5=C(N=CN=C54)N in the same assay as above.
Outline: as §1

Target	log2 fold change
PRKAG2 (UniProt Q9UGJ0)	inactive: 0.022
PPP2R5C isoform 5 (UniProt Q13362)	inactive: 0.084
PPME1 (UniProt Q9Y570)	inactive: 0.033
PRKAB2 (UniProt O43741)	inactive: -0.087
PREPL (UniProt Q4J6C6)	inactive: 0.017
PRPF19 (UniProt Q9UMS4)	inactive: -0.008
PRPF18 (UniProt Q99633)	inactive: 0.097
PPP1R14C (UniProt Q8TAE6)	inactive: -0.109
PPP5C (UniProt P53041)	inactive: 0.01
PPP4R1 (UniProt Q8TF05)	inactive: 0.065
PRAME (UniProt P78395)	inactive: -0.006
PRRC2B (UniProt Q5JSZ5)	inactive: -0.012
PRKCQ (UniProt Q04759)	inactive: 0.104
PRKACA (UniProt P17612)	inactive: -0.053
PRPF40A (UniProt O75400)	inactive: 0.123
PROCR (UniProt Q9UNN8)	inactive: -0.026
PRKDC (UniProt P78527)	inactive: 0.029
PRDX4 (UniProt Q13162)	inactive: 0.032
PRKCSH (UniProt P14314)	inactive: 0.002
PRKCSH (UniProt K7ELL7)	inactive: -0.09

Target	log2 fold change
PRDX2 (UniProt P32119)	inactive: 0.047
PRCP (UniProt P42785)	inactive: -0.061
PRPF38B (UniProt Q5VTL8)	inactive: 0.052
PPP2R5D (UniProt Q14738)	inactive: 0.087
PPP2CB (UniProt P62714)	inactive: -0.005
PPP1R11 (UniProt O60927)	inactive: -0.082
PROS1 (UniProt P07225)	inactive: -0.008
PRKCD (UniProt Q05655)	inactive: 0.071
PRIM2 (UniProt P49643)	inactive: 0.189
PPP1R12A (UniProt O14974)	inactive: 0.047
PPP1CB (UniProt P62140)	inactive: 0.077
PREP (UniProt P48147)	inactive: 0.081
PRMT9 (UniProt Q6P2P2)	inactive: 0.11
PPM1F (UniProt P49593)	inactive: 0.045
PRPF3 (UniProt O43395)	inactive: 0.08
PRPF31 (UniProt Q8WWY3)	inactive: 0.174
PPT1 (UniProt P50897)	inactive: 0
PPM1H (UniProt Q9ULR3)	inactive: 0.026
PPP1R35 (UniProt Q8TAP8)	inactive: 0.067
